# Assay results published in PubChem BioAssay AID1259415 (National Center for Advancing Translational Sciences (NCATS), 2018).
# “And” between values parts separate entries of the source, which are not always exact repeats. Equal entries are not always repeated. Out of some 410,000 compounds screened, about 18,000 (4.4%) were called active. Inconclusive means that the source gave no clear call. Such entries were picked first, then a sample of the others. No stated cut-off is given here; in the data, active means activity change below about -60%; inconclusive means no clear call, values can overlap the other calls; inactive means above about -39%.
# Experiment: qHTS Assay for inhibitors of the human cytomegalovirus (HCMV)
# Conditions: HFF cells, HCMV-luciferase reporter, 72 h; at 57.5 µM; active compounds read low
# Outline: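 Cell-based, HFFs, 1000 cells/well, 16 h 37C; cpds in DMSO + HCMV-luc, MOI 1 PFU/cell; 72 h 37C; OneGlo luminescence after 5 min RT; norm. to buffer vs Salinomycin 10uM.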
# On the % scale 0 is the no-effect control and ±100 the full control effect.
row,Compound,"activity change, negative = inhibition"
1,O=C(CCl)Nc1cccc(S(=O)(=O)N2CCCCCC2)c1,active: -97.4%
2,COc1ccccc1S(=O)(=O)CC(O)COc1ccccc1Cl (stereo not given),inconclusive: -42.6%
3,CCOc1ccc(-n2c(SCC(=O)NC3CCS(=O)(=O)C3)nnc2-c2cccnc2)cc1 (stereo not given),inconclusive: -43.8%
4,O=C1c2cccc(OCc3ccc(F)cc3)c2CCN1Cc1ccc(F)cc1,active: -82.4%
5,O=C(CCNC(=O)C1CCN(S(=O)(=O)c2ccc(F)cc2)CC1)NCc1ccc(Cl)cc1,inactive: -11.2%
6,COc1ccc(C(C)C)cc1S(=O)(=O)N1CCN(c2ccccc2)CC1,inconclusive: -43.2%
7,Cc1ccc2c(c1)-c1c(ssc1=S)C(C)(C)N2C(=O)c1ccco1,inconclusive: -41%
8,Cc1noc(C)c1C(=O)N1CCN(S(=O)(=O)c2ccc(F)cc2)CC1,inconclusive: -53.6%
9,CCCc1ccc(C(=O)CCC(=O)NNC(=O)c2ccncc2)cc1,inconclusive: -46.6%
10,COc1ccc(OC)c(CNC(=O)c2cc3c(-c4ccc(OC)c(OC)c4)nn(C)c3s2)c1,inactive: -8.5%
11,Cc1nc(C)c(Cc2ccccc2Cl)c(=O)[nH]1,inconclusive: -42.2%
12,COc1ccc(-c2ccc(Nc3ccc(S(=O)(=O)N4CCCC4)cc3)nn2)cc1OC,active: -67%
13,Cn1nc(C(=O)NCc2ccc(Cl)cc2)c2c1-c1ccccc1S(=O)(=O)C2,active: -66.1% and active: -82.1%
14,Cc1ccc(-c2ccc(S(=O)(=O)NCC3CCCO3)cc2)cc1 (stereo not given),inconclusive: -40.6%
15,COc1ccc2ncn(-c3ccccc3)c2c1,inconclusive: -48.7%
16,CN1CCN(C2(CNC(=O)c3ccc(C(C)(C)C)cc3)CCCCC2)CC1,inconclusive: -51.9%
17,Cc1cc2nnc(SCc3ccc(F)cc3)n2c2ccccc12,inactive: -3.84%
18,Cc1ccc(CNC(=O)c2sc3nc[nH]c(=O)c3c2C)cc1,inconclusive: -45.3%
19,O=C(C(=O)N1CCC(c2ccccc2)CC1)c1ccc(F)c(F)c1,active: -62.1%
20,Cc1ccc(-c2nnn(CC(=O)N(c3cccc(F)c3)C(C(=O)NC3CCCC3)c3ccco3)n2)o1 (stereo not given),inconclusive: -56.5%
21,Cc1ccc(-c2c(C#N)c(N)n3c(nc4ccccc43)c2C#N)cc1,active: -72.3%
22,CN1CCN(C(=O)c2ccc(CN(c3ccccc3)S(=O)(=O)c3ccccc3)cc2)CC1,inconclusive: -57.6%

row,Compound,"activity change, negative = inhibition"
1,COc1cccc(-c2cnc3c(NC=O)cc(-c4ccc(OC)cc4OC)cn23)c1,active: -92.1%
2,Cc1c(NC(=O)C(C)OC(=O)c2cccc(S(=O)(=O)N3CCOCC3)c2)c(=O)n(-c2ccccc2)n1C (stereo not given),inconclusive: -59.1%
3,CCOC(=O)C1CCCN(CC(=O)N(C)c2c(N)n(Cc3ccccc3)c(=O)[nH]c2=O)C1 (stereo not given),inconclusive: -52%
4,CCOC(=O)c1ccccc1NC(=O)C1CCN(c2ncnc3c2nc2n3CCCCC2)CC1,inconclusive: -51.8%
5,Clc1cccc(/C=N/Nc2ncnc3ccccc23)c1,inactive: 99.8%
6,CCOc1ccc(C(=O)/C=C/c2cn(CC(O)CN3CCCCCC3)c3ccccc23)cc1 (stereo not given),inactive: -29%
7,c1ccc(OCc2nc3c4c(ncn3n2)-c2ccccc2CC42CCCC2)cc1,inconclusive: -41.6%
8,Cc1ccc(NC(=O)C2C3CCC(O3)C2C(=O)O)cc1Cl (stereo not given),inactive: 8.85%
9,CC1(C(=O)Nc2ccc3c(c2)OCO3)CCN1C(=O)Cc1ccc(-c2ccccc2)cc1 (stereo not given),active: -80.8%
10,CCCCCCC(C)n1[nH]c(=O)cc1N (stereo not given),inactive: -17.2%
11,Cc1cc(C)c(S(=O)(=O)Nc2ccc(-c3ccc(N4CCC(C)CC4)nn3)cc2)cc1C,inconclusive: -55.4%
12,CC1CCN(c2cc(N3CCOCC3)c(F)cc2[N+](=O)[O-])CC1,inconclusive: -42.6%
13,COc1ccc(C2(C)NC(=O)N(CC(=O)Nc3cccnc3Cl)C2=O)cc1 (stereo not given),inconclusive: -42.7%
14,Cc1nn(-c2ccccc2)c(C)c1/C=N\N1CCN(c2ccc(Cl)cc2)CC1,inconclusive: -48.6%
15,COC(=O)COc1ccc(/C=C2\SC(=O)N(CC(=O)Nc3ccccc3F)C2=O)cc1,inconclusive: -40.9%
16,Cc1cc(O)ccc1-c1cccc2nccn12,inconclusive: -41.7%
17,S=C(NCc1ccncc1)NC1CCCCC1,inconclusive: -41.4%
18,CC(C)CNS(=O)(=O)c1ccc(CCC(=O)N2CCN(Cc3ccc4c(c3)OCO4)CC2)cc1,inconclusive: -56.2%
19,CCC1(CC)NC(=O)N(CC(=O)OCC(=O)Nc2ccccc2OC(F)F)C1=O,inactive: 2.76%
20,O=C(NNC(=O)C12CC3CC(CC(Cl)(C3)C1)C2)c1ccncc1,inconclusive: -40.5%
21,CCc1nnc(NC(=O)c2nc(S(=O)(=O)Cc3ccc(C)cc3)ncc2Cl)s1,active: -108% and active: -101%
22,Cc1ccc(NC(=O)c2ccc3nccnc3c2)c(C)c1,active: -68.3%

row,Compound,"activity change, negative = inhibition"
1,O=C(NCCC(=O)N1CCOCCOCCOCCOCC1)OCc1ccccc1,inactive: 15.5%
2,COC(=O)C1=C(C)N(Cc2ccc(Br)cc2)C(=S)NC1c1ccc(F)cc1 (stereo not given),inconclusive: -51.4%
3,O=C(Nc1ccc(Cl)cc1)Nc1cc([N+](=O)[O-])ccc1F,active: -78.8%
4,Cc1ccc(C(=O)NC(C#N)=C(Cl)Cl)cc1,active: -98.6%
5,COc1ccc(-c2[nH]c(-c3cccc(OC)c3)nc2SCC(=O)Nc2ccc3c(c2)OCO3)cc1,inconclusive: -54.7%
6,CC(=O)c1ccc(S(=O)(=O)NCCc2cn3ccc(C)cc3n2)cc1,inactive: 9.3%
7,Cc1cc(NC(=O)CSc2cc(Cl)ccc2Cl)n(-c2ccccc2)n1,inconclusive: -44.3%
8,O=S(=O)(c1ccc(NC(=S)N2CCN(c3ccccc3F)CC2)cc1)N1CCOCC1,inconclusive: -51.9%
9,COc1ccc(/C=C2\Sc3ccc(C(=O)NCc4cccnc4)cc3N(C)C2=O)cc1OC,inactive: -27.5%
10,O=C1/C(=C\c2cccc(O)c2)SC(=S)N1Cc1ccccc1,active: -74.3%
11,CCc1ccc(NC(=O)c2ccc(CN3CC(=O)N4CCCCC4C3=O)cc2)cc1 (stereo not given),inactive: -31.1%
12,CN(CC(=O)Nc1cccc(F)c1)C(=O)c1ccccc1OCC(=O)Nc1cccc(C(F)(F)F)c1,inactive: -15.3%
13,CC(C)CNC(=O)[C@H](Cc1ccccc1)NC(=O)c1cccs1,inconclusive: -56.1%
14,Cc1ccc(N2C(=O)N(CC(=O)Nc3ccc(C)c(C)c3[N+](=O)[O-])C(=O)C2C)cc1 (stereo not given),inactive: -11.6%
15,Cc1ccc(SCCNC(=O)c2ccc(C)c(S(=O)(=O)Nc3cccc(C)c3)c2)cc1,active: -69.7%
16,Cc1ccccc1Nc1cc(C(=O)NCCCN2CCN(c3cccc(Cl)c3)CC2)c2ccccc2n1,inconclusive: -46.2%
17,Cc1c(Cl)cccc1NC(=O)N1CCN(C(=O)c2nsc3ccccc23)CC1,inactive: 0%
18,Oc1cccc(CCC2CCCCN2Cc2cn[nH]c2-c2ccc3c(c2)OCO3)c1 (stereo not given),inconclusive: -45%
19,CC(C)N(C(=O)Cn1cc(SCC(=O)Nc2ccccc2F)c2ccccc21)C(C)C,inactive: 6.3%
20,Cc1[nH]c2ccccc2c1C(=O)/C=C\c1ccccc1Cl,inconclusive: -59%
21,COc1cc(Br)c(-c2sc(Nc3ccccc3)n[n+]2-c2ccccc2)cc1OC,inactive: 25.2%
22,COc1ccc(NC(=O)O/N=C2/CCCc3ccc(OC)cc32)cc1,active: -73.1%

row,Compound,"activity change, negative = inhibition"
1,CCC(Sc1nnc2c(n1)[nH]c1ccccc12)C(=O)Nc1nnc(C(C)C)s1 (stereo not given),inactive: -4.36%
2,CC(Oc1ccc(F)cc1)C(=O)Nc1sc2c(c1C(=O)NCc1cccnc1)CCCC2 (stereo not given),inactive: 35.6%
3,O=C(c1ccco1)N1CCCC(c2nc3c(nnn3Cc3ccc(F)cc3)c(=O)[nH]2)C1 (stereo not given),inactive: -10.3%
4,CN(C)S(=O)(=O)c1ccc(N2CCCC2)c(C(=O)Nc2nc3c(ccc4ccccc43)s2)c1,inactive: 64.9%
5,O=C(c1cc2ccccc2oc1=O)N(c1ccc(Cl)cc1)C1C=CS(=O)(=O)C1 (stereo not given),inconclusive: -46.2%
6,COCCN(Cc1cccs1)S(=O)(=O)c1cc(-c2cc(C)no2)ccc1C,inconclusive: -51.9%
7,CCOC(=O)N1CCN(Cc2nc3c(c(=O)n(C)c(=O)n3C)n2Cc2cccc3ccccc23)CC1,inactive: 7.66%
8,O=C(c1cc2cc(F)ccc2[nH]1)N1CCN(C(=O)c2ccco2)CC1,inactive: 37.1%
9,O=C(NCc1ccc(Cl)cc1)c1cnc2sc(N3CCOCC3)nn2c1=O,inactive: 3.43%
10,O=C(Cn1c(-c2ccccc2)c[n+]2ccsc12)c1ccc([N+](=O)[O-])cc1,active: -99.5%
11,O=Cc1c[nH]c2ccc(C(=O)c3ccccc3)cc12,inactive: 10.1%
12,CCCCN(CC)CCCNC(=O)CS(=O)(=O)Cc1nc(-c2ccc(C)cc2)oc1C,inconclusive: -45.2%
13,FC(F)(F)c1cccc(NC(=S)NCc2ccccn2)c1,inconclusive: -42.2%
14,COc1cc(/C=C(\C#N)C(N)=O)ccc1OS(=O)(=O)c1ccc(C)cc1,inactive: -32.3%
15,CCCOc1ccc(C(=O)Nc2ccc3oc(-c4ccncc4)nc3c2)cc1,inconclusive: -47.5%
16,COc1ccc(Nc2nc3ccccc3nc2NS(=O)(=O)c2cccs2)cc1,inconclusive: -57.3%
17,CCN(Cc1ccc(OC)c(F)c1)C(=O)c1cc2ccccc2o1,inactive: 1%
18,CCOC(=O)c1c(NC(=O)c2cc(C(C)C)on2)sc(C(C)=O)c1C,inconclusive: -40.8%
19,Clc1ccccc1NC1=NCCCS1,inconclusive: -41.1%

# Already shown: 26 of the compounds above.
row,Compound,"activity change, negative = inhibition"
14,Cc1ccc(N2C(=O)N(CC(=O)Nc3ccc(C)c(C)c3[N+](=O)[O-])C(=O)C2C)cc1 (stereo not given),inactive: -11.6%
15,Cc1ccc(SCCNC(=O)c2ccc(C)c(S(=O)(=O)Nc3cccc(C)c3)c2)cc1,active: -69.7%
16,Cc1ccccc1Nc1cc(C(=O)NCCCN2CCN(c3cccc(Cl)c3)CC2)c2ccccc2n1,inconclusive: -46.2%
17,Cc1c(Cl)cccc1NC(=O)N1CCN(C(=O)c2nsc3ccccc23)CC1,inactive: 0%
18,Oc1cccc(CCC2CCCCN2Cc2cn[nH]c2-c2ccc3c(c2)OCO3)c1 (stereo not given),inconclusive: -45%
19,CC(C)N(C(=O)Cn1cc(SCC(=O)Nc2ccccc2F)c2ccccc21)C(C)C,inactive: 6.3%
20,Cc1[nH]c2ccccc2c1C(=O)/C=C\c1ccccc1Cl,inconclusive: -59%
21,COc1cc(Br)c(-c2sc(Nc3ccccc3)n[n+]2-c2ccccc2)cc1OC,inactive: 25.2%
22,COc1ccc(NC(=O)O/N=C2/CCCc3ccc(OC)cc32)cc1,active: -73.1%
1,CCC(Sc1nnc2c(n1)[nH]c1ccccc12)C(=O)Nc1nnc(C(C)C)s1 (stereo not given),inactive: -4.36%
2,CC(Oc1ccc(F)cc1)C(=O)Nc1sc2c(c1C(=O)NCc1cccnc1)CCCC2 (stereo not given),inactive: 35.6%
3,O=C(c1ccco1)N1CCCC(c2nc3c(nnn3Cc3ccc(F)cc3)c(=O)[nH]2)C1 (stereo not given),inactive: -10.3%
4,CN(C)S(=O)(=O)c1ccc(N2CCCC2)c(C(=O)Nc2nc3c(ccc4ccccc43)s2)c1,inactive: 64.9%
5,O=C(c1cc2ccccc2oc1=O)N(c1ccc(Cl)cc1)C1C=CS(=O)(=O)C1 (stereo not given),inconclusive: -46.2%
6,COCCN(Cc1cccs1)S(=O)(=O)c1cc(-c2cc(C)no2)ccc1C,inconclusive: -51.9%
7,CCOC(=O)N1CCN(Cc2nc3c(c(=O)n(C)c(=O)n3C)n2Cc2cccc3ccccc23)CC1,inactive: 7.66%
8,O=C(c1cc2cc(F)ccc2[nH]1)N1CCN(C(=O)c2ccco2)CC1,inactive: 37.1%
9,O=C(NCc1ccc(Cl)cc1)c1cnc2sc(N3CCOCC3)nn2c1=O,inactive: 3.43%
10,O=C(Cn1c(-c2ccccc2)c[n+]2ccsc12)c1ccc([N+](=O)[O-])cc1,active: -99.5%
11,O=Cc1c[nH]c2ccc(C(=O)c3ccccc3)cc12,inactive: 10.1%
12,CCCCN(CC)CCCNC(=O)CS(=O)(=O)Cc1nc(-c2ccc(C)cc2)oc1C,inconclusive: -45.2%
13,FC(F)(F)c1cccc(NC(=S)NCc2ccccn2)c1,inconclusive: -42.2%
14,COc1cc(/C=C(\C#N)C(N)=O)ccc1OS(=O)(=O)c1ccc(C)cc1,inactive: -32.3%
15,CCCOc1ccc(C(=O)Nc2ccc3oc(-c4ccncc4)nc3c2)cc1,inconclusive: -47.5%
16,COc1ccc(Nc2nc3ccccc3nc2NS(=O)(=O)c2cccs2)cc1,inconclusive: -57.3%
17,CCN(Cc1ccc(OC)c(F)c1)C(=O)c1cc2ccccc2o1,inactive: 1%
